According to patent publication US20040102360A1, “Combination therapy” (priority 2002, published 2004):
At least one structure is not confirmed: it was looked up by name or label, or the drawing left a doubt.

Experiments:
Assay type in all cases: cell-based, human
LnCaP cells = assay: Caspase 3 activation apoptosis assay in LnCaP cells
Protocol: (§1) The herein disclosed inhibitors were evaluated as to the ability to increase cell death. Inhibitors of Akt and inhibitors of Akt and a protein kinase were assessed alone and in combination to determine the effect on caspase 3 activation.
(§2) Apoptosis Assay: Caspase 3 Activation
(§3) Cells were seeded in 96 well plates at concentrations ranging from 2×10^3 to 1×10^4 cells per well in their respective growth media. For anchorage independent assays (spheroids) cells were plated in 96 well plates that had been coated with poly-heme(poly 2-hydroxyethylmethacrylate [Sigma] 10 mg/ml in 95% ethanol). 72 hours later caspase 3 assays were set up as follows:
(§4) a. For standard combination assays, compounds were added at respective concentrations indicated and plates incubated at 37° C. in a CO2 incubator for 18 hours. For standard combination assays utilizing treatment with camptothecin, compounds and camptothecin were added at the same time at the respective concentrations indicated.
(§5) b. For combinations involving addition of the death receptor ligand TRAIL/Apo2L (Research Diagnostics) compounds were added for 1.5 hours prior to addition of TRAIL and plates incubated an additional 3 to 4 hours post TRAIL addition. In the case of the time course, plates were incubated for 2, 3, 4, 5, 6 and 7 hrs with Trail ligand before ending the assay. […]

LnCaP/Akt3 cell line = assay: Caspase 3 activation apoptosis assay in LnCaP/Akt3 cells
Protocol: as §1, §2, §3, §4, §5

MDA-MB468 cells = assay: Caspase 3 activation apoptosis assay in MDA-MB468 cells
Protocol: as §1, §2, §3, §4, §5

O=c1cc(N2CCOCC2)oc2c(-c3ccccc3)cccc12 [LY294002, reference compound]
increase in Caspase 3 activity: Caspase 3 activity in the presence of Trail (LnCaP cells; FIG. 4 (a)) | Caspase 3 activity in the presence of Camptothecin (LnCaP cells; FIG. 5 (a)) | Caspase 3 activity in the presence of Trail (LnCaP/Akt3 cell line; FIG. 4 (b)) | Caspase 3 activity in the presence of Camptothecin (LnCaP/Akt3 cell line; FIG. 5 (b)) | Caspase 3 activity in the presence of Trail (MDA-MB468 cells; FIG. 6 (a)) | Caspase 3 activity in the presence of Camptothecin (MDA-MB468 cells; FIG. 6 (b))
